In paper PMC9105187:
Results are given in words; binding and its absence hold for the method and conditions named. In cells and extracts the contact can be indirect. A yes stands for co-enrichment or nearness to the bait. Other partners may have been found.

B1: mt-phosphate carrier protein (rat) (protein, UniProt P16036 45-356)
chain: AVEGYSCEFGSMKYYALCGFGGVLSCGLTHTAVVPLDLVKCRMQVDPQKYKGIFNGFSITLKEDGVRGLAKGWAPTLIGYSMQGLCKFGFYEVFKALYSNILGEENTYLWRTSLYLAASASAEFFADIALAPMEAAKVRIQTQPGYANTLREAVPKMYKEEGLNAFYKGVAPVWMRQIPYTMMKFACFERTVEALYKFVVPKPRSECTKAEQLVVTFVAGYIAGVFCAIVSHPADSVVSVLNKEKGSTASQVLQRLGFRGVWKGLFARIIMIGTLTALQWFIYDSVKVYFRLPRPPPPEMPESLKKKLGLTE
B2: ADP/ATP translocase isoform 1 (rat) (protein, UniProt Q05962 1-298)
chain: MGDQALSFLKDFLAGGIAAAVSKTAVAPIERVKLLLQVQHASKQISAEKQYKGIIDCVVRIPKEQGFLSFWRGNLANVIRYFPTQALNFAFKDKYKQIFLGGVDRHKQFWRYFAGNLASGGAAGATSLCFVYPLDFARTRLAADVGKGSSQREFNGLGDCLTKIFKSDGLKGLYQGFSVSVQGIIIYRAAYFGVYDTAKGMLPDPKNVHIIVSWMIAQSVTAVAGLVSYPFDTVRRRMMMQSGRKGADIMYTGTVDCWRKIAKDEGRKAFFKGAWSNVLRGMGGAFVLVLYDEIKKYV
B3: TOMM22 (rat) (protein, UniProt Q75Q41 1-142)
chain: MAAAVAAAGAGEPLSPEELVPKAEAEKAEEDLEEDDDDELDETLSERLWGLTEMFPERVRSAAGATFDLSLFVAQKMYRFSRAALWIGTTSFMILVLPVVFETEKLQMEQQQQLQQRQILLGPNTGLSGGMPGALPPLPGKI
B4: SAMM50 (rat) (protein, UniProt Q6AXV4 1-469)
chain: MGTVHARSLEPLPSSGTDFGALGEEAEFVEVEPEAKQEILENKDVVVQHVHFDGLERTKDDIIICEIGEVFKAKNLIEVMRRSHEAREKLLRLGIFRQVDVLIDTCHGEDALPNGLDVTFEVTELRRLTGSYNTMVGNNEGSMVLGLKLPNLLGRAEKVTFQFSYGTKETSYGLSFFKPQPGNFEKNFSVNLYKVTGQFPWSSLRETDRGVSAEYSFPLCKTSHTVKWEGVWRELGCLARTASFAVRKESGHSLKSSLSHAMVIDSRNSSILPRRGALLKVNQELAGYTGGDVSFIKEDFELQLNKPLVLDSVFSTSLWGGMLVPIGDKLSSIADRFYLGGPTSVRGFSMHSIGPQSEGDYLGGEAYWAGGLHLYTPLPFRPGQGGFGELFRTHFFLNAGNLCNLNYGEGPRAHIRKLAECIRWSYGAGIVLRLGNIARLELNYCIPMGVQRGDRICDGVQFGAGIRFL
B5: mt-Lon protease homolog (rat) (protein, UniProt Q924S5 66-950)
chain: LWDAGSRGGSDETSEGGVEDGATASSGEGPVVTALAPMTVPDVFPHLPLIAISRNPVFPRFIKIVEVKNKKLVELLRRKVRLAQPYVGVFLKRDDNNESDVVESLDEIYHTGTFAQIHEMQDLGDKLRMIVTGHRRIHISRQLEVEPEGLEPEAENKQKSRRKLKRGKKEVGDELGAKPQLEMVTEATSDTSKEVLMVEVENVAHEDFQVTEEVKALTAEIVKTIRDIIALNPLYRESVLQMMQAGQRVVDNPIYLSDMGAALTGAESHELQDVLEETNILKRLYKALSLLKKEFELSKLQQRLGREVEEKIKQTHRKYLLQEQLKIIKKELGLEKDDKDAIEEKFRERLKELVVPKHVMDVVDEELSKLALLDNHSSEFNVTRNYLDWLTSIPWGRQSDENLDLARAQSVLEEDHYGMEDVKKRVLEFIAVSQLRGSTQGKILCFHGPPGVGKTSIARSIARALGREYFRFSVGGMTDVAEIKGHRRTYVGAMPGKIIQCLKKTKTENPLVLIDEVDKIGRGYQGDPSSALLELLDPEQNANFLDHYLDVPVDLSKVLFICTANVTDTIPEPLRDRMEMINVSGYVAQEKLAIAERYLVPQARTLCGLDESKAQLSATVLTLLIKQYCRESGVRNLQKQVEKVLRKAAYKIVSGEAQTVHVTPENLQDFVGKPVFTVERMYDVTPPGVVMGLAWTAMGGSTLFVETSLRRPQPSGSKEDKDGSLEVTGQLGDVMKESARIAYTFARAFLMEQDPENDFLVTSHIHLHVPEGATPKDGPSAGCTIVTALLSLALGQPVLQNLAMTGEVSLTGKVLPVGGIKEKTIAAKRAGVTCIILPAENRKDFSDLAPFITEGLEVHFVEHYRDIFRIAFPLREHQEALAVER
B6: mt-proton/calcium exchanger protein LETM1 (rat) (protein, UniProt Q5XIN6 115-739)
chain: EDSMIEKSLKSLKDKNKKLEEGGPVYSPPAQVVVKKSLGQKILDELKHYYHGFRLLWIDTKIAARMLWRILNGHTLTRRERRQFLRICADLFRLVPFLVFVVVPFMEFLLPVVVKLFPNMLPSTFETQSIKEERLKKELRVKLELAKFLQDTIEEMALKNKAAKGNATKDFSAFFQKIRETGERPSNEEIMRFSKLFEDELTLDNLTRPQLVALCKLLELQSIGTNNFLRFQLTMRLRSIKADDKLISEEGVDSLTVKELQAACRARGMRALGVTEDRLKGQLKQWLDLHLYHEIPTSLLILSRAMYLPDTLSPADQLKSTLQTLPEIVAKEAQVKAAEVEGEQVDNKAKLEATLQEEAAIQQEHLEELKRAAETAKDIQPEVAEATVPGRPGAELQPKMVDVIPPSEILKDTAPVLEGLKGEEITKEEIDILSDACSKLKEQKKSLTKEKEELELLKEDVQDYSEDLQEIKKELSKTGDEKYIEESTASKRLSKRVQQMIGQIDGLITQLETTQQNGKLDPAAASSPTGESVISVDELISAMKQIKHIPEHKLISLTSALDENKDGNINIDDLVKVIDLVNKEDVQISTTQVAEIVATLEKEEKVEEKEKAKEKAEKEAAEVKN
B7: mt-2-oxoisovalerate dehydrogenase subunit alpha (protein, UniProt P11960 42-441)
chain: PSLDDKPQFPGASAEFVDKLEFIQPNVISGIPIYRVMDRQGQIINPSEDPHLPQEEVLKLYRSMTLLNTMDRILYESQRQGRISFYMTNYGEEGTHVGSAAALERTDLVFGQYREAGVLMYRDYPLELFMAQCYGNVSDPGKGRQMPVHYGCKERHFVTISSPLATQIPQAVGAAYAAKRANANQIVICYFGEGAASEGDAHAGFNFAATLECPIIFFCRNNGYAISTPTSEQYRGDGIAARGPGYGIMSIRVDGNDVFAVYNATKEARRRAVAENQPFLIEAMTYRIGHHSTSDDSSAYRSVDEVNYWDKQDHPISRLRQYLLNQGWWDEEQEKAWRKQSRKKVMEAFEQAERKLKPNPSLLFSDVYQEMPAQLRRQQESLARHLQTYGEHYPLDHFDK
B8: mt-2-oxoisovalerate dehydrogenase subunit beta (protein, UniProt P35738 49-390)
chain: VAHFTFQPDPESLQYGQTQKMNLFQSITSALDNSLAKDPTAVIFGEDVAFGGVFRCTVGLRDKYGKDRVFNTPLCEQGIVGFGIGIAVTGATAIAEIQFADYIFPAFDQIVNEAAKYRYRSGDLFNCGSLTIRAPWGCVGHGALYHSQSPEAFFAHCPGIKVVIPRSPFQAKGLLLSCIEDKNPCIFFEPKILYRAAVEQVPVEPYKIPLSQAEVIQEGSDVTLVAWGTQVHVIREVASMAQEKLGVSCEVIDLRTIVPWDVDTVCKSVIKTGRLLISHEAPLTGGFASEISSTVQEECFLNLEAPISRVCGYDTPFPHIFEPFYIPDKWKCYDALRKMINY
B9: glutathione S-transferase kappa 1 (protein, UniProt P24473 1-226)
chain: MGPAPRVLELFYDVLSPYSWLGFEVLCRYQHLWNIKLKLRPALLAGIMKDSGNQPPAMVPHKGQYILKEIPLLKQLFQVPMSVPKDFFGEHVKKGTVNAMRFLTAVSMEQPEMLEKVSRELWMRIWSRDEDITESQNILSAAEKAGMATAQAQHLLNKISTELVKSKLRETTGAACKYGAFGLPTTVAHVDGKTYMLFGSDRMELLAYLLGEKWMGPVPPTLNARL

Each binder was assayed against Bcl-2 nineteen kilodalton interacting protein 3 (rat) (rat (endogenous in LV myocardium and adult cardiac myocytes)) (assay: affinity purification with mass spectrometry; 500 ug lysate of rat LV myocardium (Sham n = 3, pressure overload HFrEF n = 3) incubated with 10 ug mouse monoclonal BNIP3 antibody (Abcam ab10433); eluate on SDS-PAGE, in-gel trypsin digestion, nano-LC-MS/MS, label-free quantification).

binding, binds:
B1
B2
B3
B4
B5
B6
B7
B8
B9
